In PubChem BioAssay AID463183 (Sanford-Burnham Center for Chemical Genomics, 2010):
This is one part of the list. Shown are side measurements of this screen, not its main read-out; they come without a call. Most of these compounds were active or inconclusive in the main read-out, so they are no random draw.

Test: blockers of oleate-driven lipid droplets in liver cells – imaging, AML12 mouse hepatocytes, single concentration, high-content, confirmation (AID 463183);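 note: cells counted after overnight compound exposure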
Conditions: BODIPY lipid droplet imaging, measured here: cell count, cytotoxicity, at 5.2 µM, droplets induced with 100 µM oleic acid

Structure (SMILES) | cell count [cells]
N=c1c(C(=O)NCCN2CCOCC2)cc2c(=O)n3ccccc3nc2n1CCCN1CCOCC1 | 1580
COc1ccc(Cl)cc1NC(=O)CN1C(=O)NC2(CCCC2)C1=O | 1560
O=C(c1ccc(Cl)cc1)C1CCN(C(=O)NC2CCCCC2)CC1 | 1690
COc1ccc(CCNC(=O)CN2C(=O)c3cccc4cccc(c34)C2=O)cc1OC | 1590
Cc1cc(C)nc(Nc2nc3ccccc3[nH]2)n1 | 1660
N/C(=N\c1nc2c(c(=O)[nH]1)CCCC2)Nc1ccc(Oc2ccccc2)cc1 | 1580
CC(C)CCOc1ccc(C(=O)NCC(c2ccco2)N(C)C)cc1 (centres undefined) | 1600
Cc1cccc(CN2C(=O)N/C(=C/c3cc(C)n(-c4cc(C)ccn4)c3C)C2=O)c1 | 1590
Cc1ccc(-c2[nH]c3ccccc3c2SCCNC(=O)c2ccc(S(=O)(=O)N3CCOCC3)cc2)cc1 | 1620
CCC(C)(C)NC(=O)C(c1ccc(OC)cc1)N(Cc1ccccc1)C(=O)CCC(=O)Nc1cc(C)on1 (centres undefined) | 1630
CCn1c(=O)n(CC)c2cc(N)ccc21 | 1640
N#CC(C#N)=c1ccc2c(c1)N1C(c3ccccc3)=CC(c3ccccc3)C3CCCCC31N=2 (centres undefined) | 1630
COc1n[nH]c(C(=O)Nc2cc(F)ccc2C)c1[N+](=O)[O-] | 1610
CCOc1ccc(CCNC(=O)c2nnc(Cc3ccc(F)cc3)o2)cc1OCC | 1610
CCOc1ccc(CCNC(=O)CCS(=O)(=O)c2ccc(OC)cc2)cc1OCC | 1620
CCOc1ccc(CCNC(=O)C2(c3ccccc3)CC2)cc1OCC | 1590
Cc1ccc2[nH]c(C)c(CC(=O)NCc3ccccc3)c2c1 | 1620
CCN(CC)c1ccc(NC(=O)CCc2nnc3ccc(N4CCCC4)nn23)c(C)c1 | 1670
C/C(=C\c1cccc(Cl)c1Cl)C(=O)c1c(C)cc(C)[nH]c1=O | 1560
CCN(CC)C(=O)CC(c1ccc(OC)cc1)c1c(OC)cc(OC)c2ccc(=O)oc12 (centres undefined) | 1590

Part of the list above, with tabs.
Structure (SMILES)	cell count [cells]
COc1ccc(Cl)cc1NC(=O)CN1C(=O)NC2(CCCC2)C1=O	1560
N/C(=N\c1nc2c(c(=O)[nH]1)CCCC2)Nc1ccc(Oc2ccccc2)cc1	1580
CC(C)CCOc1ccc(C(=O)NCC(c2ccco2)N(C)C)cc1 (centres undefined)	1600
Cc1cccc(CN2C(=O)N/C(=C/c3cc(C)n(-c4cc(C)ccn4)c3C)C2=O)c1	1590
CCC(C)(C)NC(=O)C(c1ccc(OC)cc1)N(Cc1ccccc1)C(=O)CCC(=O)Nc1cc(C)on1 (centres undefined)	1630
N#CC(C#N)=c1ccc2c(c1)N1C(c3ccccc3)=CC(c3ccccc3)C3CCCCC31N=2 (centres undefined)	1630
COc1n[nH]c(C(=O)Nc2cc(F)ccc2C)c1[N+](=O)[O-]	1610
CCOc1ccc(CCNC(=O)CCS(=O)(=O)c2ccc(OC)cc2)cc1OCC	1620
CCN(CC)C(=O)CC(c1ccc(OC)cc1)c1c(OC)cc(OC)c2ccc(=O)oc12 (centres undefined)	1590

(further entries)

Structure (SMILES) | cell count [cells]
Nc1nc(-c2ccccc2)c(N=Nc2cccc3ccccc23)s1 | 1610
Cc1ccc(C2=NC3(CCCCC3)N=C2SCC(=O)Nc2ccc3c(c2)OCCO3)cc1 | 1620
Cc1ccc(CNC(=O)c2ccc(N3CCC4(CC3)CC(c3ccccc3)=NO4)c(N)c2)cc1 | 1630
CCOc1ccccc1N1CCN(C(=O)NCc2ccc(C)cc2)CC1 | 1590
CCc1cc(SC#N)cc(C)c1NC(=O)CCl | 1390
CCOC(=O)c1cc(-c2ccc(F)cc2)n(CC(=O)NC(C)CC)c1C (centres undefined) | 1670
CCOc1ccc(NS(=O)(=O)c2ccc(C(=O)N(CC)CC(=O)NCc3cccs3)cc2)cc1 | 1690
O=C/C=C/c1c(-c2ccccc2)cc2oc3ccccc3cc1-2 | 1580
O=C(Nc1ccccc1)C1=C[C@@H](C2CCCCC2)C[C@@H](OCc2ccc(CO)cc2)O1 | 1660
CCOc1ccc(CCNC(=O)COC(=O)c2ccc(OC)c(OC)c2OC)cc1OCC | 1620
CCCCn1c(N)c(-c2nc3ccccc3s2)c2c([N+](=O)[O-])nn(CC)c(=O)c21 | 1690
Cc1c(S(=O)(=O)c2ccccn2)c(N)n(Cc2ccccc2)c1C | 1540
CCCOc1ccc(C(=O)OCC(=O)NCCc2ccc(OCC)c(OCC)c2)cc1OC | 1640
Cc1ccc(-n2nc3c(=O)n(CC(=O)NC4CCCCC4)nc(C)c3c2C)cc1 | 1640
CCCN1C(=O)/C(=C/c2c(N3CCNC(=O)C3CC(=O)OCC)nc3c(C)cccn3c2=O)SC1=S (centres undefined) | 1450
Cc1ccc(NC(=O)N2CCC(C(=O)c3ccc(F)cc3)CC2)cc1 | 1710
CCOC(=O)c1ccc(NC(=O)COc2ccc(S(=O)(=O)NC(C)(C)C)cc2)cc1 | 1630
COc1cc(SC)ccc1C(=O)OC(C)C(=O)Nc1ccc(NC(C)=O)cc1 (centres undefined) | 1620
O=C(Nc1ccccc1)c1ccc(NCC2CCCO2)c(S(=O)(=O)N2CCOCC2)c1 (centres undefined) | 1590
